Results as given in the supplement of paper PMC10849652.
The other results are listed elsewhere or left out.

By UniProt entry, the sequences of proteins in these tests, tags left out. Where a name states a change or a piece, a line headed by the entry shows the natural chain unless it says otherwise.
UniProt Q99766: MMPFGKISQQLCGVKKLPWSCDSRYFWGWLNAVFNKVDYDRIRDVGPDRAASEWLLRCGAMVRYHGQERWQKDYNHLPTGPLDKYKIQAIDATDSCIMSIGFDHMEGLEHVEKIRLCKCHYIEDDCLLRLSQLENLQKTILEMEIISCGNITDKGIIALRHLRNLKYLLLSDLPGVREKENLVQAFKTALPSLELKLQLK
UniProt Q9NY93: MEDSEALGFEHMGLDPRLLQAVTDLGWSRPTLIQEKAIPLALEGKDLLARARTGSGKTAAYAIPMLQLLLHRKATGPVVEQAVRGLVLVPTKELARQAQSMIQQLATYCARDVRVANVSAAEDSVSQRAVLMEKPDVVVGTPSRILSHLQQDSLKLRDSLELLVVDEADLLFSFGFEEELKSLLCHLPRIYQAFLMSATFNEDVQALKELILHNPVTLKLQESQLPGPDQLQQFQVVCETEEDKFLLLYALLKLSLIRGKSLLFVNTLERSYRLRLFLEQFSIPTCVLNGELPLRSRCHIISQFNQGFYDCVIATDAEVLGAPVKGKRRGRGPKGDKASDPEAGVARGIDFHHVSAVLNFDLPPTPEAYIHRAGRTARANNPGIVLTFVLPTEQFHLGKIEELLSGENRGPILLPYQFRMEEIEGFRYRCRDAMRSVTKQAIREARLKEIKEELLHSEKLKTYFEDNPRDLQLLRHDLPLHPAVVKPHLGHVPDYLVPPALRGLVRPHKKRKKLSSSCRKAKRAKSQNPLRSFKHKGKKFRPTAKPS
UniProt Q8IV53: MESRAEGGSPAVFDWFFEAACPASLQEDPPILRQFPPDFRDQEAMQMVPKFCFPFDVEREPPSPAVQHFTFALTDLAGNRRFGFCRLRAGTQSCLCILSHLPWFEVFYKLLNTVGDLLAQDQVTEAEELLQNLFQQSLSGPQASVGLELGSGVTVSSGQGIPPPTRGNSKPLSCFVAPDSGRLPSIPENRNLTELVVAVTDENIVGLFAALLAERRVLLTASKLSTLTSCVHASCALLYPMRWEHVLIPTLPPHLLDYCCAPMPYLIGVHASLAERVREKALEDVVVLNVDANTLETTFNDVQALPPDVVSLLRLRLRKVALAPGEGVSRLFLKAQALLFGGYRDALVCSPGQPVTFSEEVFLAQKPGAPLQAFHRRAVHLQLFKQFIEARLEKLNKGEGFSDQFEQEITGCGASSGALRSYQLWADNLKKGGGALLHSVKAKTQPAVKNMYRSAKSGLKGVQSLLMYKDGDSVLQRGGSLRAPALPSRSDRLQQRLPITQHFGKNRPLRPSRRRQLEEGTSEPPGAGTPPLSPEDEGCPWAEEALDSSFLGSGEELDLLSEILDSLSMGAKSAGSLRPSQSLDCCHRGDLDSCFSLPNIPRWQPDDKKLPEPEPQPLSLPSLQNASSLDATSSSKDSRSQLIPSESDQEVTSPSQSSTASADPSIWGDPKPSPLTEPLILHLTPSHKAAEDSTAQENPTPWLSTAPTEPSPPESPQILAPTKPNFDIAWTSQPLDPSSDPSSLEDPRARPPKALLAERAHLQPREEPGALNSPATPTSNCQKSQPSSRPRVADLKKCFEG
UniProt Q6UWP2: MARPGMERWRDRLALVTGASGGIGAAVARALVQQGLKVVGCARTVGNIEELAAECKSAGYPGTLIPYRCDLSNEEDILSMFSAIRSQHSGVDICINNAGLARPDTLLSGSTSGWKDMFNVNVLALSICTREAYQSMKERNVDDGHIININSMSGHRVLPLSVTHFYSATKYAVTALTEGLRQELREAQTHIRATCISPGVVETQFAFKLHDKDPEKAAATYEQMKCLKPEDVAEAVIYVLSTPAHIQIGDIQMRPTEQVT
UniProt Q96HY6: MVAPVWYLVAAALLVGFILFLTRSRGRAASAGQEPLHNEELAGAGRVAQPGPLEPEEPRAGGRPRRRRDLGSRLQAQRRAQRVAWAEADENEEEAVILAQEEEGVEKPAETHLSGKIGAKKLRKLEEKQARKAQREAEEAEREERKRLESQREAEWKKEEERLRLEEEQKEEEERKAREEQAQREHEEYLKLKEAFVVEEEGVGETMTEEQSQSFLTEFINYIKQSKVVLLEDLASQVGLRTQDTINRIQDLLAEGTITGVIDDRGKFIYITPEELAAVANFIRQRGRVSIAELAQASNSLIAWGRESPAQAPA
UniProt Q15700, whole entry, looked up: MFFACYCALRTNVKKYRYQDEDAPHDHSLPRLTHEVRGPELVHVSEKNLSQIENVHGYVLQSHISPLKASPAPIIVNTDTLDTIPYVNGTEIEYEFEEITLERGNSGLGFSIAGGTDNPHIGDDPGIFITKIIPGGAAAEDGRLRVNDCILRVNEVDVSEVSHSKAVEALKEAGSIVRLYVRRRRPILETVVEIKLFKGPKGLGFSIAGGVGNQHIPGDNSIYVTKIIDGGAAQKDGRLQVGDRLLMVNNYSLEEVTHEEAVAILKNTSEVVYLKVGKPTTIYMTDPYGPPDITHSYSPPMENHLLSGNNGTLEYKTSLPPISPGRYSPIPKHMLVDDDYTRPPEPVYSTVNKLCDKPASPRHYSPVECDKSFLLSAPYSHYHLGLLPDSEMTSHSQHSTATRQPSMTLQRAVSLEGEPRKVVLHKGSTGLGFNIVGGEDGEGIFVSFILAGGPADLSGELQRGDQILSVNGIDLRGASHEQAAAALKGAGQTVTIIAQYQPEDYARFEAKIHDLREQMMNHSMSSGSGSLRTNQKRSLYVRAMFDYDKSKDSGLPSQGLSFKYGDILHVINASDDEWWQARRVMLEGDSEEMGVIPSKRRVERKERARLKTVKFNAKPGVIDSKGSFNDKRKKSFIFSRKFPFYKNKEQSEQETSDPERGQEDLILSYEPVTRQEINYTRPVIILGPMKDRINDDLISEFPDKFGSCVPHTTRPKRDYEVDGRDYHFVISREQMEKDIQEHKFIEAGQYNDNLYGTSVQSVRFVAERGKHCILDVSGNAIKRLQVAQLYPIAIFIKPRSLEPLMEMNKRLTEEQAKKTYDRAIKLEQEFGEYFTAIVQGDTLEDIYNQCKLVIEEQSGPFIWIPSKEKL
UniProt Q9UMR2: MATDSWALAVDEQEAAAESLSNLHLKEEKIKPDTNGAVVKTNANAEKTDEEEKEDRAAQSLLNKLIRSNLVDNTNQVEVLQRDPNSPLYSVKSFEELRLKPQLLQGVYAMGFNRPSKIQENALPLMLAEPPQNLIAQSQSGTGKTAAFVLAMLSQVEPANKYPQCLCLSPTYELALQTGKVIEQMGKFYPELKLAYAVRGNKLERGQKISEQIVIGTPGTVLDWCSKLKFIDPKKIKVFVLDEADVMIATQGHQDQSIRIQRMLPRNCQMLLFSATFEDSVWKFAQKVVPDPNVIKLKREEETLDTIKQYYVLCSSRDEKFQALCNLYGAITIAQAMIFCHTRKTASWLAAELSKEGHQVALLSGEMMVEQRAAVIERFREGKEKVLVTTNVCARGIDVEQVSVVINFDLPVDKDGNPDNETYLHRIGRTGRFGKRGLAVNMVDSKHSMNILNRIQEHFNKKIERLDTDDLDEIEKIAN
UniProt Q9BUQ8: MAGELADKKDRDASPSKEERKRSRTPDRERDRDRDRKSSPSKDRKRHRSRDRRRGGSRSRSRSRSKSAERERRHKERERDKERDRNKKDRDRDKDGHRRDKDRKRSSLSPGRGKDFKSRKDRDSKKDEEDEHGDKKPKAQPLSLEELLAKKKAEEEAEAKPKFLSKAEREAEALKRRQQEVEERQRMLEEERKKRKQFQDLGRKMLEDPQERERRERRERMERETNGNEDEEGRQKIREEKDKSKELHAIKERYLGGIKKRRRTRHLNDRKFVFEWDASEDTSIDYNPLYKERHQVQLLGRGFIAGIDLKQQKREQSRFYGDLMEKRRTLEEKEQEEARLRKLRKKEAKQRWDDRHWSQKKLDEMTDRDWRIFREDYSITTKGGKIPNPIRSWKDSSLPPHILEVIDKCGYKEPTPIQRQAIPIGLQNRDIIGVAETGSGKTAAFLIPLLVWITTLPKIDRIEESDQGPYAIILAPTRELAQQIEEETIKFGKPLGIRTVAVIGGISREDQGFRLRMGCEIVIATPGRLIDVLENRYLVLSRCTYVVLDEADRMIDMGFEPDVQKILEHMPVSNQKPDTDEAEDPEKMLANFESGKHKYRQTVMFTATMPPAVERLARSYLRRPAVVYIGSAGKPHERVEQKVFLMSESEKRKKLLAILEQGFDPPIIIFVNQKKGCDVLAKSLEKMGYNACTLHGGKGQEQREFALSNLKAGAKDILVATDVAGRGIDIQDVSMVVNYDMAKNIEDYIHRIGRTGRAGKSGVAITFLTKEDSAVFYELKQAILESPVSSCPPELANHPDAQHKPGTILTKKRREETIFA
UniProt Q9Y2H0: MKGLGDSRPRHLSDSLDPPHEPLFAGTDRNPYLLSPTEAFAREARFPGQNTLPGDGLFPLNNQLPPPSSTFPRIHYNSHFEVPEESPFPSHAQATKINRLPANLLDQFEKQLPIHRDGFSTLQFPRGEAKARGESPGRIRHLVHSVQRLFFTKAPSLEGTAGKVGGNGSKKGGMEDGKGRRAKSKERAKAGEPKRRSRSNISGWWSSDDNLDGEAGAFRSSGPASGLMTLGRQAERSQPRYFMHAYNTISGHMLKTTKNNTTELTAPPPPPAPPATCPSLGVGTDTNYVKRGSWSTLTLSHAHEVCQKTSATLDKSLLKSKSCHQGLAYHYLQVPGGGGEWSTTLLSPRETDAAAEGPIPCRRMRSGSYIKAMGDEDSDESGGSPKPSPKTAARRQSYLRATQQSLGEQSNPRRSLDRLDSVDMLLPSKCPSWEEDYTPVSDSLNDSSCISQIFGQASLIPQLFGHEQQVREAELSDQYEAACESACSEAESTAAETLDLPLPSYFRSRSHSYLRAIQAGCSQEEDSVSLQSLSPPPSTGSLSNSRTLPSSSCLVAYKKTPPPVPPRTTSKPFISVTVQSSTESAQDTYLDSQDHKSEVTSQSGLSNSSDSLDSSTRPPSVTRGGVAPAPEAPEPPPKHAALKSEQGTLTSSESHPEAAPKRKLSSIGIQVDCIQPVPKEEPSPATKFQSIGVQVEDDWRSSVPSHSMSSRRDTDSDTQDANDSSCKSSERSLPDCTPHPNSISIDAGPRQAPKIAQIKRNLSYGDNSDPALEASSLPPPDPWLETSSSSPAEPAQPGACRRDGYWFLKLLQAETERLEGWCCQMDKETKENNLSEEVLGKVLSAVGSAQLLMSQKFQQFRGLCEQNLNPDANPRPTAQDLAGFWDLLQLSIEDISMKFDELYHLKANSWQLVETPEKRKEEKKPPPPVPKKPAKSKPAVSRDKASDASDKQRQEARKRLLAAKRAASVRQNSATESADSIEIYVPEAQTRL
UniProt Q9Y394: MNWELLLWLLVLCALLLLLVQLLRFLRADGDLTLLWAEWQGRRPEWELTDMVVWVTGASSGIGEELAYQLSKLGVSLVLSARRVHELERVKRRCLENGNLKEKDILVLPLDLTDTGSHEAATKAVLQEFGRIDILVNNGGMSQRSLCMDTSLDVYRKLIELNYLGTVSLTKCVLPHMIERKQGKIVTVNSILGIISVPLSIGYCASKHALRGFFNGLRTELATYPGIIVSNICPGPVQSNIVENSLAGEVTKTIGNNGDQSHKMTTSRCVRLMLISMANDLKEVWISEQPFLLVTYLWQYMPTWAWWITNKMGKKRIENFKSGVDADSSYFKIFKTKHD
UniProt Q9Y315: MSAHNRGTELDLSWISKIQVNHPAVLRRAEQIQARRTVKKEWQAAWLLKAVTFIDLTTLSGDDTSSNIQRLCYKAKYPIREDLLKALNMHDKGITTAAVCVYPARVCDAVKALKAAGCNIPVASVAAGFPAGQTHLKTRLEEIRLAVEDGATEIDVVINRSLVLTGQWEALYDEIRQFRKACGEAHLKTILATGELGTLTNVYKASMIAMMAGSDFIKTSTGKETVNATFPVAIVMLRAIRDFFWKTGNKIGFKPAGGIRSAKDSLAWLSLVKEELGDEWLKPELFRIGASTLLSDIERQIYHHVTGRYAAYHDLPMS
UniProt O60884: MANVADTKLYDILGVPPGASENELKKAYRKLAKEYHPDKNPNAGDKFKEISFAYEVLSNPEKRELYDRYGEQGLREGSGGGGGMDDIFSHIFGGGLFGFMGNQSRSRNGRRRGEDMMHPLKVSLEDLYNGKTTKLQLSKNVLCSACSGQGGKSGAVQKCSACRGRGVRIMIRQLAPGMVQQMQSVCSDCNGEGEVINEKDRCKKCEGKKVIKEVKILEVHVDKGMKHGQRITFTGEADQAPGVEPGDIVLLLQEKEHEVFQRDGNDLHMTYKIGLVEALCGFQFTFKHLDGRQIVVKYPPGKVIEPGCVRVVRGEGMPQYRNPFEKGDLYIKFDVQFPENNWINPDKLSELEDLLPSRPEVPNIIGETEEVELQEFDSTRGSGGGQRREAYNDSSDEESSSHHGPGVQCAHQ

Assays:
Assay in all cases: log2 fold change, soluble protein after heating vs DMSO (PISA); higher = thermal stabilisation; K562 cells, 10 uM, 30 min; active = over 0.2 and 3.5 SD of the protein, either way, in both replicates (recomputed)
[1] = compound: CS(=O)(=O)c1ccc(-c2cnc(N)c(C(=O)Nc3ccccc3)n2)cc1
Summary of the method: (§1)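 K562 cells at 2×10^6 cells/mL were treated with 10 μM compound for 30 min. Aliquots were heated for 3 min across 48°C-58°C, pooled, and extracted in PBS with 0.5% NP-40 at 4°C; soluble protein was the supernatant after 21,000xg for 90 min. Soluble protein was quantified by TMTpro 16plex LC-MS/MS with channel sums equalised, and reported as log2 fold change in thermal stability against DMSO controls, with values from duplicates.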

crizotinib = compound: C[C@@H](Oc1cc(-c2cnn(C3CCNCC3)c2)cnc1N)c1c(Cl)ccc(F)c1Cl [crizotinib]
Summary of the method: as §1

[2] = compound: C[C@@H]1COCCN1C2=NC(=NC(=C2)C3(CC3)S(=O)(=O)C)C4=C5C=CNC5=CC=C4
Summary of the method: as §1

[3] = compound: C[C@H](C1=CC=C(C=C1)C(=O)NC2=C3C=CNC3=NC=C2)N
Summary of the method: as §1

duvelisib = compound: C[C@H](Nc1ncnc2nc[nH]c12)c1cc2cccc(Cl)c2c(=O)n1-c1ccccc1 [duvelisib]
Summary of the method: as §1

gandotinib = compound: Cc1cc(Nc2cc(CN3CCOCC3)c3nc(C)c(Cc4ccc(Cl)cc4F)n3n2)n[nH]1 [gandotinib]
Summary of the method: as §1

tozasertib = compound: Cc1cc(Nc2cc(N3CCN(C)CC3)nc(Sc3ccc(NC(=O)C4CC4)cc3)n2)n[nH]1 [tozasertib]
Summary of the method: as §1

[4] = compound: Cc1cc(SCc2sc(-c3ccc(C(F)(F)F)cc3)nc2C)ccc1OCC(=O)O
Summary of the method: as §1

doramapimod = compound: Cc1ccc(-n2nc(C(C)(C)C)cc2NC(=O)Nc2ccc(OCCN3CCOCC3)c3ccccc23)cc1 [doramapimod]
Summary of the method: as §1

ispinesib = compound: Cc1ccc(C(=O)N(CCCN)[C@@H](c2nc3cc(Cl)ccc3c(=O)n2Cc2ccccc2)C(C)C)cc1 [ispinesib]
Summary of the method: as §1

bafetinib = compound: Cc1ccc(NC(=O)c2ccc(CN3CC[C@H](N(C)C)C3)c(C(F)(F)F)c2)cc1Nc1nccc(-c2cncnc2)n1 [bafetinib]
Summary of the method: as §1

[5] = compound: Cc1cccc(CC(=O)N2CCc3c2ccc(-c2cn(C)c4ncnc(N)c24)c3F)n1
Summary of the method: as §1

nilotinib = compound: Cc1cn(-c2cc(NC(=O)c3ccc(C)c(Nc4nccc(-c5cccnc5)n4)c3)cc(C(F)(F)F)c2)cn1 [nilotinib]
Summary of the method: as §1

[6] = compound: Cc1nc(Nc2n[nH]c3c2CN(C(=O)N[C@H](CN(C)C)c2ccccc2)C3(C)C)c2sccc2n1
Summary of the method: as §1

dasatinib = compound: Cc1nc(Nc2ncc(C(=O)Nc3c(C)cccc3Cl)s2)cc(N2CCN(CCO)CC2)n1 [dasatinib]
Summary of the method: as §1

[7] = compound: Cc1ncc(-c2ccnc(Nc3ccc(S(C)(=O)=O)cc3)n2)n1C(C)C
Summary of the method: as §1

[8] = compound: Cn1cc(-c2ccc3c(c2)CCN3C(=O)Cc2cccc(C(F)(F)F)c2)c2c(N)ncnc21
Summary of the method: as §1

[9] = compound: Cn1cc(-c2ccc3nnc(C(F)(F)c4ccc5ncccc5c4)n3n2)cn1
Summary of the method: as §1

tipifarnib = compound: Cn1cncc1[C@@](N)(c1ccc(Cl)cc1)c1ccc2c(c1)c(-c1cccc(Cl)c1)cc(=O)n2C [tipifarnib]
Summary of the method: as §1

mubritinib = compound: FC(F)(F)c1ccc(/C=C/c2nc(COc3ccc(CCCCn4ccnn4)cc3)co2)cc1 [mubritinib]
Summary of the method: as §1

Measured: log2 fold change

DDI2 isoform 3 (UniProt Q5TDH0)
inactive: [1] 0.039 | crizotinib -0.006 | [2] -0.004 | [3] -0.047 | duvelisib -0.016 | gandotinib -0.037 | tozasertib 0.059 | [4] -0.005 | doramapimod -0.002 | ispinesib 0.028 | bafetinib -0.038 | [5] 0.079 | nilotinib 0.019 | [6] 0.017 | dasatinib -0.012 | [7] -0.029 | [8] 0.047 | [9] 0.008 | tipifarnib -0.016 | mubritinib 0.029

DMAC2L (UniProt Q99766)
inactive: [1] 0.074 | crizotinib 0.154 | [2] 0.037 | [3] -0.035 | duvelisib 0.093 | gandotinib -0.065 | tozasertib -0.043 | [4] -0.046 | doramapimod -0.003 | ispinesib 0.151 | bafetinib -0.003 | [5] 0 | nilotinib -0.045 | [6] 0.002 | dasatinib -0.025 | [7] 0.044 | [8] 0.063 | [9] 0.088 | tipifarnib 0.031 | mubritinib 0.028

DDX56 (UniProt Q9NY93)
inactive: [1] 0.05 | crizotinib -0.255 | [2] -0.036 | [3] 0.365 | duvelisib -0.024 | gandotinib 0.03 | tozasertib 0.027 | [4] 0.135 | doramapimod 0.095 | ispinesib -0.04 | bafetinib 0.432 | [5] 0.13 | nilotinib 0.288 | [6] 0 | dasatinib -0.011 | [7] 0.039 | [8] -0.213 | [9] -0.147 | tipifarnib 0.096 | mubritinib 0.384

DENND1C (UniProt Q8IV53)
inactive: [1] -0.033

DHRS11 (UniProt Q6UWP2)
inactive: [1] 0.01 | crizotinib -0.112 | [2] 0.073 | [3] -0.079 | duvelisib 0.046 | gandotinib -0.066 | tozasertib -0.015 | [4] -0.014 | doramapimod 0.021 | ispinesib -0.025 | bafetinib -0.026 | [5] -0.005 | nilotinib 0.006 | [6] -0.024 | dasatinib -0.102 | [7] -0.012 | [8] 0.106 | [9] 0.012 | tipifarnib -0.073 | mubritinib -0.047

DENND4C isoform 7 (UniProt Q5VZ89)
inactive: [1] -0.026 | crizotinib -0.113 | [2] 0.014 | [3] 0.035 | duvelisib -0.054 | gandotinib -0.038 | tozasertib 0.014 | [4] -0.124 | doramapimod -0.044 | ispinesib -0.211 | bafetinib -0.019 | [5] 0.11 | nilotinib -0.074 | [6] -0.187 | dasatinib -0.037 | [7] 0.002 | [8] 0.084 | [9] 0.009 | tipifarnib -0.032 | mubritinib 0.092

DDRGK1 (UniProt Q96HY6)
inactive: [1] 0.02 | crizotinib 0.034 | [2] -0.03 | [3] 0.023 | duvelisib -0.083 | gandotinib -0.084 | tozasertib 0.027 | [4] 0.027 | doramapimod 0.018 | ispinesib 0.044 | bafetinib 0.034 | [5] -0.089 | nilotinib -0.014 | [6] 0.008 | dasatinib 0.045 | [7] 0.018 | [8] -0.009 | [9] -0.01 | tipifarnib 0.098 | mubritinib 0.042

DLG2 isoform 2 (UniProt Q15700)
inactive: [1] 0.003 | crizotinib -0.13 | [2] 0.012 | [3] -0.06 | duvelisib 0.054 | gandotinib 0.011 | tozasertib 0.074 | [4] -0.065 | doramapimod -0.055 | ispinesib -0.033 | bafetinib -0.125 | [5] 0.136 | nilotinib 0.034 | [6] -0.015 | dasatinib 0.001 | [7] -0.022 | [8] -0.017 | [9] -0.116 | tipifarnib 0.009 | mubritinib -0.035

DNAH9 (UniProt Q9NYC9)
inactive: [1] -0.032 | crizotinib 0.03 | [2] 0.041 | [3] -0.053 | duvelisib 0.061 | gandotinib 0.009 | tozasertib -0.018 | [4] -0.083 | doramapimod -0.017 | ispinesib -0.023 | bafetinib -0.013 | [5] -0.019 | nilotinib -0.006 | [6] 0.056 | dasatinib 0.033 | [7] -0.013 | [8] -0.011 | [9] 0.011 | tipifarnib -0.024 | mubritinib 0.009

DDX19B (UniProt Q9UMR2)
inactive: [1] -0.025 | crizotinib -0.031 | [2] -0.008 | [3] -0.032 | duvelisib 0.021 | gandotinib -0.069 | tozasertib 0.001 | [4] 0.021 | doramapimod -0.007 | ispinesib -0.023 | bafetinib -0.052 | [5] 0.028 | nilotinib -0.055 | [6] -0.067 | dasatinib -0.124 | [7] 0.025 | [8] 0.055 | [9] 0.004 | tipifarnib -0.077 | mubritinib -0.131

DDX23 (UniProt Q9BUQ8)
inactive: [1] -0.023 | crizotinib 0.082 | [2] -0.162 | [3] 0.212 | duvelisib 0.037 | gandotinib 0.159 | tozasertib 0.118 | [4] -0.025 | doramapimod 0.182 | ispinesib 0.079 | bafetinib 0.341 | [5] -0.081 | nilotinib 0.301 | [6] -0.016 | dasatinib 0.283 | [7] 0.073 | [8] -0.306 | [9] -0.104 | tipifarnib -0.016 | mubritinib 0.101

Copied from the entries so far (two entries):
DDX19B (UniProt Q9UMR2)
inactive: [1] -0.025 | crizotinib -0.031 | [2] -0.008 | [3] -0.032 | duvelisib 0.021 | gandotinib -0.069 | tozasertib 0.001 | [4] 0.021 | doramapimod -0.007 | ispinesib -0.023 | bafetinib -0.052 | [5] 0.028 | nilotinib -0.055 | [6] -0.067 | dasatinib -0.124 | [7] 0.025 | [8] 0.055 | [9] 0.004 | tipifarnib -0.077 | mubritinib -0.131

DDX23 (UniProt Q9BUQ8)
inactive: [1] -0.023 | crizotinib 0.082 | [2] -0.162 | [3] 0.212 | duvelisib 0.037 | gandotinib 0.159 | tozasertib 0.118 | [4] -0.025 | doramapimod 0.182 | ispinesib 0.079 | bafetinib 0.341 | [5] -0.081 | nilotinib 0.301 | [6] -0.016 | dasatinib 0.283 | [7] 0.073 | [8] -0.306 | [9] -0.104 | tipifarnib -0.016 | mubritinib 0.101

Remaining list, next part.

DLGAP4 (UniProt Q9Y2H0)
inactive: [1] -0.017 | crizotinib 0.02 | [2] 0.031 | [3] 0.02 | duvelisib -0.037 | gandotinib 0.002 | tozasertib 0 | [4] 0.056 | doramapimod -0.009 | ispinesib 0.05 | bafetinib -0.044 | [5] -0.016 | nilotinib 0.027 | [6] -0.054 | dasatinib -0.038 | [7] -0.014 | [8] -0.023 | [9] -0.04 | tipifarnib 0.027 | mubritinib 0.047

DHRS7 (UniProt Q9Y394)
inactive: [1] -0.024 | crizotinib 0.036 | [2] -0.027 | [3] -0.037 | duvelisib 0.03 | gandotinib 0.068 | tozasertib -0.051 | [4] -0.025 | doramapimod 0.011 | ispinesib 0.075 | bafetinib -0.03 | [5] -0.02 | nilotinib -0.017 | [6] 0.009 | dasatinib 0.032 | [7] 0.025 | [8] -0.002 | [9] 0.023 | tipifarnib 0.051 | mubritinib 0.01

DGKZ (UniProt Q13574)
inactive: [1] 0.04 | crizotinib -0.032 | [2] -0.003 | [3] 0.045 | duvelisib -0.028 | gandotinib -0.024 | tozasertib -0.018 | [4] 0.018 | doramapimod 0.049 | ispinesib -0.019 | bafetinib -0.028 | [5] 0.018 | nilotinib -0.035 | [6] -0.064 | dasatinib -0.008 | [7] 0.108 | [8] -0.048 | [9] -0.101 | tipifarnib 0.091 | mubritinib -0.028

DERA (UniProt Q9Y315)
inactive: [1] -0.001 | crizotinib 0.05 | [2] 0.052 | [3] 0.009 | duvelisib 0.041 | gandotinib 0.049 | tozasertib -0.06 | [4] -0.025 | doramapimod 0.007 | ispinesib 0.03 | bafetinib -0.028 | [5] 0.005 | nilotinib -0.007 | [6] 0.026 | dasatinib -0.02 | [7] 0.013 | [8] 0.05 | [9] 0.003 | tipifarnib -0.005 | mubritinib 0.019

DNAJA2 (UniProt O60884)
inactive: [1] -0.005 | crizotinib 0.01 | [2] 0.036 | [3] -0.051 | duvelisib 0.024 | gandotinib -0.034 | tozasertib 0.021 | [4] -0.018 | doramapimod -0.017 | ispinesib 0.034 | bafetinib -0.061 | [5] 0.024 | nilotinib -0.084 | [6] -0.045 | dasatinib -0.053 | [7] -0.008 | [8] 0.02 | [9] 0.06 | tipifarnib 0.061 | mubritinib 0.03

DMD (UniProt P11532)
inactive: [1] -0.024 | crizotinib 0.004 | [2] 0.012 | [3] 0.023 | duvelisib 0.014 | gandotinib -0.054 | tozasertib 0 | [4] 0.024 | doramapimod -0.001 | ispinesib -0.002 | bafetinib -0.048 | [5] 0.013 | nilotinib -0.025 | [6] -0.08 | dasatinib -0.033 | [7] -0.019 | [8] 0.026 | [9] -0.028 | tipifarnib -0.009 | mubritinib 0.075
